# PubChem BioAssay AID248 (DTP/NCI, 2004)
# The list shows only some results of the screen, not a fair sample: it gathers tests that were run many times, whatever their T/C, doses with no T/C, and many T/C values between a quarter and a half above the control. Further doses and runs are listed elsewhere. T/C gives the treated animals as a percentage of the vehicle group. Some entries give survivors of the animals treated and no T/C: the source files T/C as zero there, which appears to mark a toxic dose or a test without result, not a measured value. Some survivor counts are full or nearly so, which does not show that the dose was tolerated: survival well below the control is almost never listed, so the zero probably covers shortened survival too. Counts of survivors are from the toxicity check (mostly the fifth day) where no day follows; animals may have died later. Schedule codes are those of the source, read here as Q, the interval in days (D) or hours (H), X, the number of doses. Some entries hold several experiments; the values are given in rising order. Brackets with × give the number of equal values in this list. Some schedule codes hold Z or #, which are not explained here. Where survival is the endpoint, this PubChem deposit counts one and a half times the control or more as active, and values a quarter to a half above the control carry no call in these data; other NCI protocols may use other cut-offs.
# Test system: L1210 leukemia ip in BDF1 mice, survival T/C
# Test: NCI In Vivo Anticancer Drug Screen. Data for tumor model L1210 Leukemia (intraperitoneal) in B6D2F1 (BDF1) mice
# Details: T/C endpoint: mean survival time, higher T/C = longer survival
# [1] = dose: 200.0 mg/kg/injection, schedule: Q04DX003 (ip), vehicle: Klucel (hydroxypropylcellulose) (HPC)
# [2] = dose: 400.0 mg/kg/injection, schedule: Q04DX003 (ip), vehicle: Klucel (hydroxypropylcellulose) (HPC)
# [3] = dose: 400.0 mg/kg/injection, schedule: Q04DX003 (ip), vehicle: saline
# [4] = dose: 400.0 mg/kg/injection, schedule: Q01DX001 (ip), vehicle: saline
# [5] = dose: 400.0 mg/kg/injection, schedule: Q04DX003 (ip), vehicle: saline with Tween-80
# [6] = dose: 400.0 mg/kg/injection, schedule: Q01DX009 (ip), vehicle: Klucel (hydroxypropylcellulose) (HPC)
smiles,measurement,setting,value
Nc1nc(N)c2nc(COc3ccc(C(=O)NC(CCC(=O)O)C(=O)O)cc3)cnc2n1 (centres undefined),T/C,"dose: 1.25 mg/kg/injection, schedule: Q01DX009 (ip), vehicle: sodium bicarbonate",129 and 132 % of control
same,T/C,"dose: 1.8 mg/kg/injection, schedule: Q01DX009 (ip), vehicle: sodium bicarbonate",127 % of control
same,survivor count,"dose: 10.0 mg/kg/injection, schedule: Q01DX009 (ip), vehicle: sodium bicarbonate",6 of 6
same,survivor count,"dose: 20.0 mg/kg/injection, schedule: Q01DX009 (ip), vehicle: sodium bicarbonate",5 of 6 and 6 of 6
same,survivor count,"dose: 40.0 mg/kg/injection, schedule: Q01DX009 (ip), vehicle: sodium bicarbonate",4 of 6
same,survivor count,"dose: 80.0 mg/kg/injection, schedule: Q01DX009 (ip), vehicle: sodium bicarbonate",2 of 6
CC(C)CC(O)CC(C)C,survivor count,"dose: 470.0 mg/kg/injection, schedule: Q01DX009 (ip), vehicle: saline with Tween-80",1 of 6
CS(=O)(=O)OCCN(CCOS(C)(=O)=O)c1ccc(C=Nc2cccc(Br)c2)cc1,T/C,"dose: 20.0 mg/kg/injection, schedule: Q04DX003 (ip), vehicle: Klucel (hydroxypropylcellulose) (HPC)",143 % of control
same,T/C,"dose: 40.0 mg/kg/injection, schedule: Q04DX003 (ip), vehicle: Klucel (hydroxypropylcellulose) (HPC)",145 % of control
same,survivor count,"dose: 80.0 mg/kg/injection, schedule: Q04DX003 (ip), vehicle: Klucel (hydroxypropylcellulose) (HPC)",6 of 6
same,survivor count,[1],4 of 6
same,survivor count,[2],4 of 6
CCOC(=O)C[n+]1ccccc1Br,survivor count,"dose: 200.0 mg/kg/injection, schedule: Q01DX015 (ip), vehicle: water",0 of 6
same,survivor count,"dose: 400.0 mg/kg/injection, schedule: Q01DX015 (ip), vehicle: water",0 of 6
[Cl][Zn][Cl].[NH-]CCN1CC1.[NH-]CCN1CC1,survivor count,"dose: 80.0 mg/kg/injection, schedule: Q04DX003 (ip), vehicle: saline",0 of 6
same,survivor count,"dose: 100.0 mg/kg/injection, schedule: Q04DX003 (ip), vehicle: saline",0 of 6
same,survivor count,"dose: 200.0 mg/kg/injection, schedule: Q04DX003 (ip), vehicle: saline",0 of 6
same,survivor count,[3],0 of 6
CC(/C=N/N=C(\N)N(C)C)=N\N=C(/N)N(C)C,survivor count,"dose: 480.0 mg/kg/injection, schedule: Q01DX Z (ip), vehicle: carboxymethylcellulose (CMC)",3 of 6
OCc1nc2cc3nc(CO)[nH]c3cc2[nH]1,survivor count,"dose: 300.0 mg/kg/injection, schedule: Q01DX001 (ip), vehicle: carboxymethylcellulose (CMC)",0 of 6
C=C(COC(C)(C)C)CN(C)C,survivor count,[4],0 of 6
C[As](C)[Se]CC1OC(O)C(O)C(O)C1O (centres undefined),survivor count,"dose: 100.0 mg/kg/injection, schedule: Q01DX009 (ip), vehicle: saline with Tween-80",6 of 6
same,survivor count,"dose: 200.0 mg/kg/injection, schedule: Q01DX009 (ip), vehicle: saline with Tween-80",0 of 6
same,survivor count,"dose: 400.0 mg/kg/injection, schedule: Q01DX009 (ip), vehicle: saline with Tween-80",0 of 6
O=C(O)/C=C/C(=O)Nc1cc(Cl)cc2c1-c1c(Cl)cc(Cl)cc1C2=O,survivor count,[2],1 of 6
COc1ccc(C2C3CCC(C3)C2N)cc1 (centres undefined),survivor count,"dose: 40.0 mg/kg/injection, schedule: Q01DX009 (ip), vehicle: saline with Tween-80",0 of 6
same,survivor count,"dose: 100.0 mg/kg/injection, schedule: Q04DX003 (ip), vehicle: saline with Tween-80",0 of 6
same,survivor count,"dose: 200.0 mg/kg/injection, schedule: Q04DX003 (ip), vehicle: saline with Tween-80",0 of 6 (2×)
same,survivor count,[5],0 of 6 (2×)
Cc1cc(C(=O)O)c(C)o1,survivor count,[6],3 of 6
O=c1cc(Nc2ccc(Cl)cc2)[nH]c(=O)[nH]1,survivor count,"dose: 200.0 mg/kg/injection, schedule: Q01DX001 (ip), vehicle: gum acacia",3 of 6
CCC[As](=O)(O)c1ccc(Cl)cc1,survivor count,"dose: 50.0 mg/kg/injection, schedule: Q01DX001 (ip), vehicle: Klucel (hydroxypropylcellulose) (HPC)",0 of 3
same,survivor count,"dose: 100.0 mg/kg/injection, schedule: Q01DX001 (ip), vehicle: Klucel (hydroxypropylcellulose) (HPC)",0 of 3
same,survivor count,"dose: 200.0 mg/kg/injection, schedule: Q01DX001 (ip), vehicle: Klucel (hydroxypropylcellulose) (HPC)",0 of 3
same,survivor count,"dose: 400.0 mg/kg/injection, schedule: Q01DX001 (ip), vehicle: Klucel (hydroxypropylcellulose) (HPC)",0 of 3
CC(c1ccccc1)n1cncc1C(=O)N(C)C (centres undefined),survivor count,[3],0 of 6
CC1C=C(Br)C(=O)c2ccccc2N1S(C)(=O)=O (centres undefined),survivor count,"dose: 50.0 mg/kg/injection, schedule: Q01DX009 (ip), vehicle: Klucel (hydroxypropylcellulose) (HPC)",1 of 6
same,survivor count,"dose: 50.0 mg/kg/injection, schedule: Q04DX003 (ip), vehicle: Klucel (hydroxypropylcellulose) (HPC)",6 of 6
same,survivor count,"dose: 100.0 mg/kg/injection, schedule: Q04DX003 (ip), vehicle: Klucel (hydroxypropylcellulose) (HPC)",0 of 6 and 5 of 6
same,survivor count,[1],1 of 6
same,survivor count,[2],2 of 6
CCN(CC)C(C)CN1c2ccccc2Sc2ccccc21 (centres undefined),survivor count,"dose: 50.0 mg/kg/injection, schedule: Q04DX003 (ip), vehicle: saline",4 of 4
same,survivor count,"dose: 200.0 mg/kg/injection, schedule: Q01DX009 (ip), vehicle: Klucel (hydroxypropylcellulose) (HPC)",6 of 6
same,survivor count,[6],4 of 6
same,survivor count,[3],2 of 4
CCCCNC(c1ccc(C[N+]2(C)CCCC2)cc1)C(Cl)(Cl)Cl (centres undefined),survivor count,"dose: 40.0 mg/kg/injection, schedule: Q01DX001 (ip), vehicle: saline",2 of 4
same,survivor count,"dose: 80.0 mg/kg/injection, schedule: Q01DX001 (ip), vehicle: saline",1 of 4
same,survivor count,"dose: 100.0 mg/kg/injection, schedule: Q01DX001 (ip), vehicle: saline",1 of 4
same,survivor count,"dose: 200.0 mg/kg/injection, schedule: Q01DX001 (ip), vehicle: saline",0 of 4
same,survivor count,[4],0 of 4
c1ccc2c(Nc3ccc(C4=NCCN4)cc3)nnc(Nc3ccc(C4=NCCN4)cc3)c2c1,T/C,"dose: 125.0 mg/kg/injection, schedule: Q01DX Z (ip), vehicle: carboxymethylcellulose (CMC)",129 % of control
same,survivor count,"dose: 250.0 mg/kg/injection, schedule: Q01DX Z (oral), vehicle: water",3 of 6
Cc1csc(/N=C/c2ccc([N+](=O)[O-])o2)n1,survivor count,[5],1 of 6
COc1ccc(/C=N\NC(=O)N/N=C/c2ccc(OC)c(Br)c2)cc1Br,survivor count,"dose: 200.0 mg/kg/injection, schedule: Q04DX002 (ip), vehicle: Klucel (hydroxypropylcellulose) (HPC)",3 of 3
